Measurements: patent US8153413B2, “High alkaline protease and use thereof” (Japan Agency for Marine-Earth Science and Technology, priority 2004, dated 2012)
At least one structure is not confirmed: it was looked up by name or label, or the drawing left a doubt. Numbered stars: 1 amine (or outer) side, 2 acyl side, 3 side chain; on linkers, the order of the positions; unused ones are H or OH. Peptide text beside a SMILES is read from it. CO = O=C([*:1])[*:2]

System: alkaline protease ALTP
Experiment: Influence of inhibitors on residual activity
Format: biochemical, Alkaliphillus transvaalensis
Details: inhibitor 0.1 mM, pH 7, 30° C., 20 minutes
Experimental: Each inhibitor was added to 20 mmol/L phosphate buffer (pH 7) at a predetermined concentration, and the invention enzyme was added thereto. The solution was warmed at 30° C. for 20 minutes. Subsequently, the resulting solution was approximately diluted with 50 mmol/L borate buffer (pH 10), and the residual activity was measured.

SMILES: CC(C)[C@H](NC(=O)[C@H](CCCNC(=N)N)NC(=O)N[C@@H](Cc1ccccc1)C(=O)O)C(=O)N[C@H](C=O)CCCNC(=N)N [Antipain] ({Phe-CO}-Arg-Val-Arg-aldehyde)
- Residual activity (%): 94%
